No constants are given. Whether binding was seen depends on the method and setting. Some binding calls cover weakened binding; strength is not graded here.
Experiments:
Assay in all cases: peptide or protein array; HuProt human proteome microarray; 5 ug/5 ml biotin-labelled LUBAC or OTULIN in solution, 1 h at room temperature; Cy5-streptavidin, scanned at 635 nm; BSA as negative control; hits: Z-score >= 3 and I_(Mean_Ratio) >= 1.4; both purified
TTC9C (human) = biological target: T1, TTC9C (human) (UniProt Q8N5M4)
T1 sequence: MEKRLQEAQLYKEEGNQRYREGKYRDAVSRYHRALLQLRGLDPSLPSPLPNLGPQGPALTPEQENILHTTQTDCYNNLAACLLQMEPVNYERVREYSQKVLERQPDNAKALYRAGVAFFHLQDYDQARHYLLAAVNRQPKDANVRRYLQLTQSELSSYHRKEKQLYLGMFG

Chains of the proteins cited; added tags and fusions are not shown.
UniProt Q9HCP0: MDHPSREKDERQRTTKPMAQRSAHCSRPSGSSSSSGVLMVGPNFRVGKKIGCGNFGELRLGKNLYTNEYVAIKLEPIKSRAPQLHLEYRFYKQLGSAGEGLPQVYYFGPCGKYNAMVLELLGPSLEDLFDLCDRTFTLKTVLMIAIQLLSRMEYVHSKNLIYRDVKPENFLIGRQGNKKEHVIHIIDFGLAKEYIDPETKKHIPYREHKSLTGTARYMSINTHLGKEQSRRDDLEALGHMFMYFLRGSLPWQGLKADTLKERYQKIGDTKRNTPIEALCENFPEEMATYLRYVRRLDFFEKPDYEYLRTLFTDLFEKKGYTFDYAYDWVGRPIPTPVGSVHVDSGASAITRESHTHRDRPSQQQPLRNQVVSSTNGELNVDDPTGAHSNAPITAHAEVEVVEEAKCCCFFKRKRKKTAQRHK
UniProt Q8IZ83: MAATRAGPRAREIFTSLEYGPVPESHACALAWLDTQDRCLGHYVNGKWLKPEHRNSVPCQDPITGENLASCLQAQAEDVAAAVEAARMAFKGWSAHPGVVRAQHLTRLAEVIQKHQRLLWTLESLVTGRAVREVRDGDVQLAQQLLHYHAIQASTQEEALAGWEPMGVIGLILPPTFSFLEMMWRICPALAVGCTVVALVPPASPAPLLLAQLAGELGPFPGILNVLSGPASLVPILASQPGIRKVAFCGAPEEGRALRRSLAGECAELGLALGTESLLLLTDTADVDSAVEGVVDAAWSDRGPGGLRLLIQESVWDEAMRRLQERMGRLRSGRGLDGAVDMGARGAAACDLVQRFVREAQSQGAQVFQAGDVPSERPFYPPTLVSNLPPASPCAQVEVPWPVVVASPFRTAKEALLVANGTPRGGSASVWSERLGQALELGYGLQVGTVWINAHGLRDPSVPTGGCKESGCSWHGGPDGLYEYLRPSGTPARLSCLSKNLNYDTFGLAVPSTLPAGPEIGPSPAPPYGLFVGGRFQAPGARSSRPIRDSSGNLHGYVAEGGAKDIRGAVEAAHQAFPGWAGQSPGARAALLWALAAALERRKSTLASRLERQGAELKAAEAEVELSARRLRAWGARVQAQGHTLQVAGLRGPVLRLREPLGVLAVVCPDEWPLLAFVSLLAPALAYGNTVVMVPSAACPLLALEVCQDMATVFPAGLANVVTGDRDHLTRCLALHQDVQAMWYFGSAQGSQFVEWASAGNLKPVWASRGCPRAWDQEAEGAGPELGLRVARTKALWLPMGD

CSNK1G1 (human) = CSNK1G1 (human) (UniProt Q9HCP0)
SORBS3 (human) = biological target: T2, SORBS3 (human) (UniProt O60504)
T2 sequence: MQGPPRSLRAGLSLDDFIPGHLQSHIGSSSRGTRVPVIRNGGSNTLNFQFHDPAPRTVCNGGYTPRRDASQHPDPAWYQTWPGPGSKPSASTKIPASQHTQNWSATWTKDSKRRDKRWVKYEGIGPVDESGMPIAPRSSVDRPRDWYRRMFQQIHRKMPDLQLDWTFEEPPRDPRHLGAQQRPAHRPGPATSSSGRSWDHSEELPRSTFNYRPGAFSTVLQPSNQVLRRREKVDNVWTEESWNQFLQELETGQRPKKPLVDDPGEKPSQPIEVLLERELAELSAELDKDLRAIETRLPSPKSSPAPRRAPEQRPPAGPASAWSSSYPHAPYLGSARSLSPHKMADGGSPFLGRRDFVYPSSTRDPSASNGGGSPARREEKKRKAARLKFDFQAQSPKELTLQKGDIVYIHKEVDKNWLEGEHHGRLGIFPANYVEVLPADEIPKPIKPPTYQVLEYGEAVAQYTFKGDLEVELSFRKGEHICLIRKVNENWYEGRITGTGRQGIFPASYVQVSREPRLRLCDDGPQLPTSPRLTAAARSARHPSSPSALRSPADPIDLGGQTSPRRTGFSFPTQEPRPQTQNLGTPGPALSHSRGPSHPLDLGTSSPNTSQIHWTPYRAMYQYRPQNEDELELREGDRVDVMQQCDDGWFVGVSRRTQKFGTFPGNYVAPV

PNKP (human) = PNKP (human) (UniProt Q96T60)
XAGE3 (human) = biological target: T3, XAGE3 (human) (UniProt Q8WTP9)
T3 sequence: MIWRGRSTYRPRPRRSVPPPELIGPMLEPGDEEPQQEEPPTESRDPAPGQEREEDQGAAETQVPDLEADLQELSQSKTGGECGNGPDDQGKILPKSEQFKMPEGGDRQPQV

TRIM24 (human) = biological target: T4, TRIM24 (human) (UniProt O15164)
T4 sequence: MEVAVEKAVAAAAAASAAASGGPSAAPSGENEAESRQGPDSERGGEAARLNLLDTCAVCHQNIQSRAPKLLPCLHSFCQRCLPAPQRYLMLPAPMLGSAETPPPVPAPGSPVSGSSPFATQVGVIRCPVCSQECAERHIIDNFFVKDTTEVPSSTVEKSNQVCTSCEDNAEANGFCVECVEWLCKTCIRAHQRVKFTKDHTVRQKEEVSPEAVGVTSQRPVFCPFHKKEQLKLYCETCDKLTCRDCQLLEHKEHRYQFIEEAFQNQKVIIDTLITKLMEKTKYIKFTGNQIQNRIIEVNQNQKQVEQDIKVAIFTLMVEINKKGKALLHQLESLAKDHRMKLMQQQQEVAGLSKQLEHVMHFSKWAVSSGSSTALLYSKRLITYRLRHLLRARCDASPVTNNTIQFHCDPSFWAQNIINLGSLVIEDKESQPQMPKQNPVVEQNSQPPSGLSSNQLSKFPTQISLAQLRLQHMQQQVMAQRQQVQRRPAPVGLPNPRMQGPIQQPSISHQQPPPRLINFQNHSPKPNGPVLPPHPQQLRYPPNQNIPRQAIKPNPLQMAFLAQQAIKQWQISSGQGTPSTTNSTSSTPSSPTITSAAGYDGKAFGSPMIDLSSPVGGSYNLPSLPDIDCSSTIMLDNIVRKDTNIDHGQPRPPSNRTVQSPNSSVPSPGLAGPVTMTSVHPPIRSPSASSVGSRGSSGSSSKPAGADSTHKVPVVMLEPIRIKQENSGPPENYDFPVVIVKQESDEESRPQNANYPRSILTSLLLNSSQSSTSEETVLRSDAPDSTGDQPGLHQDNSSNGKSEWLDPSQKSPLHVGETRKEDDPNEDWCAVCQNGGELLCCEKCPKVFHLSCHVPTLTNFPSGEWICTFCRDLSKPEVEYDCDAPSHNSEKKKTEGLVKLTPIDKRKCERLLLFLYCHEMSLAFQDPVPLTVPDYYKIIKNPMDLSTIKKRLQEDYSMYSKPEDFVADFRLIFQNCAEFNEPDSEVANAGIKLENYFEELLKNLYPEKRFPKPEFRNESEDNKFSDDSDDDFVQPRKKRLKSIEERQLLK

ALDH16A1 (human) = ALDH16A1 (human) (UniProt Q8IZ83)

binding (TTC9C (human)): binds
binding (CSNK1G1 (human)): binds
binding (SORBS3 (human)): binds
binding (PNKP (human)): binds
binding (XAGE3 (human)): binds
binding (TRIM24 (human)): binds
binding (ALDH16A1 (human)): binds
Substance: linear ubiquitin chain assembly complex (LUBAC), purified as HIS-tagged HOIP with the subunit HOIL-1, biotin-labelled (from UniProt Q96EP0 1-1072; Q9BYM8 1-510)
